{"source": "PubChem BioAssay AID190", "about": "(DTP/NCI, 2004)", "test_system": "AKR/Lw mice, AKR lymphoma ip, median survival T/C", "assay": "NCI In Vivo Anticancer Drug Screen. Data for tumor model Lymphoma AKR (Transplanted) (intraperitoneal) in AKR/Lw mice", "conditions": "T/C endpoint: median survival time, higher T/C = longer survival", "method": "The antitumor activity of compounds was measured in mice bearing transplantable tumors. Survival or tumor size were measured and the results are expressed as the measurement made in the treated group (T) divided by the measurement made in the vehicle treated control group (C). The tumor model used in this assay is Lymphoma AKR (Transplanted) (intraperitoneal) in AKR/Lw mice", "note": "The list shows only some results of the screen, not a fair sample: its compounds were picked by chemical class. Not every dose and run of a compound is shown. T/C gives the treated animals as a percentage of the vehicle group. For survival time, the PubChem record calls one and a half times the control and up active, and a quarter to a half above the control has no call in these data; cut-offs in other NCI protocols can differ. Schedule codes are those of the source, read here as Q, the interval in days (D) or hours (H), X, the number of doses. Some entries show no survivor count and are marked so; the dose need not have been tolerated. Some entries hold several experiments; their values stand side by side, smallest first."}
{"smiles": "CC(=O)OCC12CCC(C)=CC1OC1C(O)C(OC(C)=O)C2(C)C12CO2", "note": "(centres undefined)", "values": [{"measurement": "T/C", "setting": "dose: 0.03 mg/kg/injection, schedule: Q04DX003 (ip), vehicle: saline", "value": "105 % of control [survivor count not shown]"}, {"measurement": "T/C", "setting": "dose: 0.06 mg/kg/injection, schedule: Q04DX003 (ip), vehicle: saline", "value": "113 % of control [survivor count not shown]"}, {"measurement": "T/C", "setting": "dose: 0.15 mg/kg/injection, schedule: Q04DX003 (ip), vehicle: saline", "value": "105 % of control [survivor count not shown]"}, {"measurement": "T/C", "setting": "dose: 0.2 mg/kg/injection, schedule: Q01DX009 (ip), vehicle: saline", "value": "92 [survivor count not shown] and 191 % of control [survivor count not shown]"}, {"measurement": "T/C", "setting": "dose: 0.25 mg/kg/injection, schedule: Q04DX003 (ip), vehicle: saline", "value": "104 [survivor count not shown], 108 [survivor count not shown], 114 % of control [survivor count not shown]"}, {"measurement": "T/C", "setting": "dose: 0.4 mg/kg/injection, schedule: Q01DX009 (ip), vehicle: saline", "value": "133 % of control [survivor count not shown]"}, {"measurement": "T/C", "setting": "dose: 0.5 mg/kg/injection, schedule: Q04DX003 (ip), vehicle: saline", "value": "87 [survivor count not shown], 102 [survivor count not shown], 131 % of control [survivor count not shown]"}, {"measurement": "T/C", "setting": "dose: 0.62 mg/kg/injection, schedule: Q04DX003 (ip), vehicle: saline", "value": "97 % of control [survivor count not shown]"}, {"measurement": "T/C", "setting": "dose: 0.75 mg/kg/injection, schedule: Q01DX009 (ip), vehicle: saline", "value": "115 % of control [survivor count not shown]"}, {"measurement": "T/C", "setting": "dose: 1.0 mg/kg/injection, schedule: Q01DX001 (ip), vehicle: saline", "value": "96 [survivor count not shown] and 106 % of control [survivor count not shown]"}, {"measurement": "T/C", "setting": "dose: 1.0 mg/kg/injection, schedule: Q01DX009 (ip), vehicle: saline", "value": "91 [survivor count not shown] and 107 % of control [survivor count not shown]"}, {"measurement": "T/C", "setting": "dose: 1.0 mg/kg/injection, schedule: Q04DX003 (ip), vehicle: saline", "value": "102 [survivor count not shown], 109 [survivor count not shown], 113 [survivor count not shown], 116 [survivor count not shown], 128 % of control [survivor count not shown]"}, {"measurement": "T/C", "setting": "dose: 1.2 mg/kg/injection, schedule: Q04DX003 (ip), vehicle: saline", "value": "139 % of control [survivor count not shown]"}, {"measurement": "T/C", "setting": "dose: 1.25 mg/kg/injection, schedule: Q01DX001 (ip), vehicle: saline", "value": "118 % of control [survivor count not shown]"}, {"measurement": "T/C", "setting": "dose: 1.25 mg/kg/injection, schedule: Q04DX003 (ip), vehicle: saline", "value": "127 % of control [survivor count not shown]"}, {"measurement": "T/C", "setting": "dose: 1.5 mg/kg/injection, schedule: Q01DX001 (ip), vehicle: saline", "value": "100 % of control [survivor count not shown]"}, {"measurement": "T/C", "setting": "dose: 2.0 mg/kg/injection, schedule: Q01DX001 (ip), vehicle: saline", "value": "103 [survivor count not shown] and 134 % of control [survivor count not shown]"}, {"measurement": "T/C", "setting": "dose: 2.0 mg/kg/injection, schedule: Q04DX003 (ip), vehicle: saline", "value": "87 [survivor count not shown], 104 [survivor count not shown], 142 % of control [survivor count not shown]"}, {"measurement": "T/C", "setting": "dose: 2.5 mg/kg/injection, schedule: Q01DX001 (ip), vehicle: saline", "value": "105 % of control [survivor count not shown]"}, {"measurement": "T/C", "setting": "dose: 2.5 mg/kg/injection, schedule: Q04DX003 (ip), vehicle: saline", "value": "122 [survivor count not shown], 134 [survivor count not shown], 138 [survivor count not shown], 141 % of control [survivor count not shown]"}, {"measurement": "T/C", "setting": "dose: 3.0 mg/kg/injection, schedule: Q01DX001 (ip), vehicle: saline", "value": "90 % of control [survivor count not shown]"}, {"measurement": "T/C", "setting": "dose: 4.0 mg/kg/injection, schedule: Q01DX001 (ip), vehicle: saline", "value": "100 % of control [survivor count not shown]"}, {"measurement": "T/C", "setting": "dose: 4.0 mg/kg/injection, schedule: Q04DX003 (ip), vehicle: water", "value": "144 % of control [survivor count not shown]"}, {"measurement": "T/C", "setting": "dose: 5.0 mg/kg/injection, schedule: Q04DX003 (ip), vehicle: saline", "value": "110 [survivor count not shown], 152 [survivor count not shown], 161 % of control [survivor count not shown]"}, {"measurement": "T/C", "setting": "dose: 6.0 mg/kg/injection, schedule: Q01DX001 (ip), vehicle: saline", "value": "119 % of control [survivor count not shown]"}, {"measurement": "T/C", "setting": "dose: 7.5 mg/kg/injection, schedule: Q04DX003 (ip), vehicle: saline", "value": "150 % of control [survivor count not shown]"}, {"measurement": "T/C", "setting": "dose: 10.0 mg/kg/injection, schedule: Q01DX001 (ip), vehicle: saline", "value": "107 % of control [survivor count not shown]"}, {"measurement": "T/C", "setting": "dose: 15.0 mg/kg/injection, schedule: Q01DX001 (ip), vehicle: saline", "value": "113 % of control [survivor count not shown]"}, {"measurement": "T/C", "setting": "dose: 20.0 mg/kg/injection, schedule: Q01DX001 (ip), vehicle: saline", "value": "120 % of control [survivor count not shown]"}]}
